Paper PMC3725163
These are yes or no findings as the source states them, for the method shown. Binding seen in cells or lysates may run through a third protein. Sequences can lack the tags named with a protein.

Amino acid sequences for entries named in this document (tags omitted). Residues count along the entry.
UniProt P29837, residues 2512-3414: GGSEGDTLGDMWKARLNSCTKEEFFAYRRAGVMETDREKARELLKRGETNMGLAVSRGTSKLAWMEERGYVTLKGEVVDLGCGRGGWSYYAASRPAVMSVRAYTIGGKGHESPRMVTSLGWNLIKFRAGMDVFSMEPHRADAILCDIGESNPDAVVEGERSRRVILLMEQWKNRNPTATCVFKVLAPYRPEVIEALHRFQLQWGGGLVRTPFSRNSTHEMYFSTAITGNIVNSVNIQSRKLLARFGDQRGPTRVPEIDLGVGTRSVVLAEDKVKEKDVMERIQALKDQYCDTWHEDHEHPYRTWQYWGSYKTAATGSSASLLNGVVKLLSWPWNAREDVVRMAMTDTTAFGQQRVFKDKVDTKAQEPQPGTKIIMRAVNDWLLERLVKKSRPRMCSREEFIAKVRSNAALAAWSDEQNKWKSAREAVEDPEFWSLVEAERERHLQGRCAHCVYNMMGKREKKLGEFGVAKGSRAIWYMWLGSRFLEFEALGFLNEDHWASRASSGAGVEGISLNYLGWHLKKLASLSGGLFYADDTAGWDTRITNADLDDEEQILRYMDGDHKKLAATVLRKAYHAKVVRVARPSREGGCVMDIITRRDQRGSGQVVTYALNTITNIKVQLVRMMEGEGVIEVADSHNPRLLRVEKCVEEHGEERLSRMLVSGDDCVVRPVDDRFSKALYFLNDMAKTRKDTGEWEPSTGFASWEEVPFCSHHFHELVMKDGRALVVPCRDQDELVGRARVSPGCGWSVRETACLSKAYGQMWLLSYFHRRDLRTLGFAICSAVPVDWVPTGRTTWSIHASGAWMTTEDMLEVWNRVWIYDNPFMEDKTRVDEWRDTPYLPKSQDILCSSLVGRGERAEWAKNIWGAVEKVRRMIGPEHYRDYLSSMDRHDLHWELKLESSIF

Biological target: T1, human PKGIβ-Flag (cGMP-dependent protein kinase G I beta), expressed in HEK293T cells (human) (UniProt Q13976)
T1 sequence: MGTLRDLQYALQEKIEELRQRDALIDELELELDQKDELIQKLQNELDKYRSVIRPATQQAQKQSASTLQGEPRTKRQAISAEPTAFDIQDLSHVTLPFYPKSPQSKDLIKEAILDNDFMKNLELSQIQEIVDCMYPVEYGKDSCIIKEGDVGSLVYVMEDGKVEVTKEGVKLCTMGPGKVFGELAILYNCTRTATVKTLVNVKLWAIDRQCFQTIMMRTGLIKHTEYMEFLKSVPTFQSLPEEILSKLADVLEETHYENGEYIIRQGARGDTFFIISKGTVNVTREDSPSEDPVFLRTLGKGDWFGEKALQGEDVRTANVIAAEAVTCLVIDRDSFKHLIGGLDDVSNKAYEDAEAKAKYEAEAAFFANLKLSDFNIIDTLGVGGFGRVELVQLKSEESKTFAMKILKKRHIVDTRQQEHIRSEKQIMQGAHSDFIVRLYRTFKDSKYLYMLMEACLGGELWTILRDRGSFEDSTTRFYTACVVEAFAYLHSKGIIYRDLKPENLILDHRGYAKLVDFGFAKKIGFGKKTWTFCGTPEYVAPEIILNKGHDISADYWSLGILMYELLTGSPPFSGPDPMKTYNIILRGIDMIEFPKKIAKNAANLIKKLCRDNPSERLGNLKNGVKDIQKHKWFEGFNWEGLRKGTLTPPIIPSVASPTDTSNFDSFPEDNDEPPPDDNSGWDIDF
Assay: co-IP

Langat virus NS5, full-length (aa 1-904), HA-tagged, expressed in HEK293T cells (from UniProt P29837)
binding: no binding
